Three molecules from patent US20200262930A1 (YALE UNIVERSITY, published 2020) can be followed below.

The target of assay [1] is primate (Cynomolgus monkey) CHI3L1/YKL-40 (Cynomolgus monkey). Kind of assay: Western blot, SDS-PAGE (reduced) and native PAGE, 500 ng/lane recombinant protein.
The target is the same in assay [2]. The assay can be described thus: titration ELISA.
The target is the same in assay [3]. Kind of assay: titration ELISA (FIG. 10).

Residue numbers refer to the chain shown, from its start. Results are given in words; binding and its absence hold for the method and conditions named. Some entries that bind do so weakly or less than the wild type.

B1: H1-L1 (humanized anti-YKL-40 antibody) (antibody, V domains shown)
VH: QIQLVQSGSELKKPGASVKISCKASGYTFTNYGMNWVRQAPGQGLEWMGWINTYTGEPTYADDFKGRFVFSLDTSVSTAYLQISSLKAEDTSVYFCARLGYGKFYVMDYWGQGTSVTVSS
VL: DVVMTQSPLSLPVTLGQPASISCRSSQSLVHSNGNTYLNWYQQRPGQSPRLLIYKVSNRFSGVPDRFSGSGSGTDFTLKISRVEAEDVGVYFCSQSTHVTWTFGGGTKLEIK
notes: Humanized, kappa light chain, human IgG (detected with goat anti-human IgG-HRP; the PK assay uses an anti-IgG1 capture antibody); also called anti-YKL-40 H1-L1
With B1, the binding entry in assay [1], in assay [2] and in assay [3] was “binds” each time.

B2: H4-L1 (humanized anti-YKL-40 antibody) (antibody, V domains shown)
VH: B1 VH with E46K
VL: B1 VL
notes: Humanized, human IgG (detected with goat anti-human IgG-HRP)
B2: the binding entry in assay [1] and in assay [2] was “binds” in each case.

B3: H11-L1 (humanized anti-YKL-40 antibody) (antibody, V domains shown)
VH: QIQLVQSGPEVKQPGASVKISCKASGYTFTNYGMNWVKQAPGQGLKWMGWINTYTGEPTYAQGFTGRFVFSLDTSASTAYLQISSLKAEDMSTYFCARLGYGKFYVMDYWGQGTSVTVSS
VL: B1 VL
notes: Humanized, human IgG
Regarding B3, the binding result in assay [2] is recorded as “binds”.
